Results published in PMC3689669.
Results are given in words; binding and its absence hold for the method and conditions named. Binding can be weak; no strength is given.

Molecular target: T1, Mouse cytokeratin 10 (residues 1–570) (mouse) (UniProt P02535)
T1 sequence: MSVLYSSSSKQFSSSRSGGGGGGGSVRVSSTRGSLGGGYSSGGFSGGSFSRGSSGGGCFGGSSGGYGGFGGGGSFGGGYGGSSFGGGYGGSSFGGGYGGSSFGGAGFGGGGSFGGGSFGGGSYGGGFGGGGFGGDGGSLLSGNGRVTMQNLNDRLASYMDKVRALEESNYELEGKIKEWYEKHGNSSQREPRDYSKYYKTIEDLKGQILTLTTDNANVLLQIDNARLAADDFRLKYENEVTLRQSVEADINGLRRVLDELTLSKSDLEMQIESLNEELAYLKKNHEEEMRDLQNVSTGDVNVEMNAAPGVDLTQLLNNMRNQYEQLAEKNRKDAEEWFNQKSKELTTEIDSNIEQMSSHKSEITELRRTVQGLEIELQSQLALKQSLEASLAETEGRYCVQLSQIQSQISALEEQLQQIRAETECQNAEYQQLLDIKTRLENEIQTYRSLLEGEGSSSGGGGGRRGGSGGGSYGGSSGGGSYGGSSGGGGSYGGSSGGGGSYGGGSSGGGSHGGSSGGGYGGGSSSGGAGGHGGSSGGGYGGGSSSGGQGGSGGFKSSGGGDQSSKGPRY
Assay: ELISA; human Fbg, Fn, α-elastin or K10 coated in bicarbonate buffer overnight; increasing concentrations of SpsD167–519, F288A or latch mutant; detected with anti-SpsD37–519 IgG; both purified

“SpsD_(167–519) F288A (domain or fragment)” was tested, and the binding was “binds”.
